# Measurements published in patent publication US20030170683A1.
# No constants are given. Whether binding was seen depends on the method and setting. For part of these data: Binding can be weak; no strength is given. Where a sequence is shown, tags or fusion partners need not be part of it.
# Columns and labels:
# Assay in all cases: radiolabeled GST-peptide probe on a western blot of WW domains (far-western)
# GST alone = target: GST alone
# WW domain of FBP30 = target: WW domain of FBP30
# WW domain of YAP = target: WW domain of YAP
binder,measurement,setting,value
"GMGIPPPPPLPGVGIPPPPPLP (peptide, not shown: a dimerising Fc or GST, radiolabeled (label and position not stated))",binding,GST alone,no binding
same,binding,WW domain of FBP30,binds
same,binding,WW domain of YAP,no binding
